Results from paper PMC5156329.
Results are given in words; binding and its absence hold for the method and conditions named. Binding seen in cells or lysates may run through a third protein. Some results given as binding are weak or reduced against the parent protein; the word gives no strength. Sequences can lack the tags named with a protein.

Biological target: T1, KSHV ORF57-eGFP (Kaposi's sarcoma-associated herpesvirus (KSHV)) (UniProt Q2HR75)
T1 sequence: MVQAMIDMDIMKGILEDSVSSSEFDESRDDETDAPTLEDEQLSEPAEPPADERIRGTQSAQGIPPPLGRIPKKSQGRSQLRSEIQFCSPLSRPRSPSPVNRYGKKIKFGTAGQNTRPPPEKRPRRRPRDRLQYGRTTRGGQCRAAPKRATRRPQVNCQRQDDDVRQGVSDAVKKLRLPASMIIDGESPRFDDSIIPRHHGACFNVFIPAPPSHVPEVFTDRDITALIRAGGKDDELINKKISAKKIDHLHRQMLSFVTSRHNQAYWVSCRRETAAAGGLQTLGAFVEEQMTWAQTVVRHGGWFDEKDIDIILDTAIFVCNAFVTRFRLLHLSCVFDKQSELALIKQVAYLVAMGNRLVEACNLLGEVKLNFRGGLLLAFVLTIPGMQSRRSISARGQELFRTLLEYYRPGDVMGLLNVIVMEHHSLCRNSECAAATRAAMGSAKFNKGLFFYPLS
Experiment: co-IP; lysates of HEK-293T cells transfected 24 h with ORF57-eGFP or eGFP, incubated with GFP-trap agarose beads; RNase A (0.01 U ml^-1) added to the lysates; Western blot of endogenous partners

B1: CIP29 (protein, UniProt P82979 1-210)
chain: MATETVELHKLKLAELKQECLARGLETKGIKQDLIHRLQAYLEEHAEEEANEEDVLGDETEEEETKPIELPVKEEEPPEKTVDVAAEKKVVKITSEIPQTERMQKRAERFNVPVSLESKKAARAARFGISSVPTKGLSSDNKPMVNLDKLKERAQRFGLNVSSISRKSEDDEKLKKRKERFGIVTSSAGTGTTEDTEAKKRKRAERFGIA
With B1 the binding was “binds”.
